Assay results from PubChem BioAssay AID2685 (National Center for Advancing Translational Sciences (NCATS), 2010).
The other results are listed elsewhere or left out. Further columns of the screen follow, without active or inactive calls. Most of these compounds were active or inconclusive in the main read-out, so they are no random draw. Words in brackets tell the shape of the fitted curve; partial curves, single points and poor fits give uncertain potencies.

Assay: qHTS Assay for Lipid Storage Modulators in Drosophila S3 Cells;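 for cell number change: cells counted by Cell Tracker Red CMTPX staining in the red channel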
Settings: BODIPY lipid droplet fluorescence, 18-24 h; for cell number change: measured here: cell count max response, cells fed with added oleic acid
Method in brief: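 Drosophila S3 cells loaded with oleic acid (400 uM, as added) and compounds at several concentrations; lipid droplets imaged by 488-nm laser-scanning cytometry, 500–530 nm intensity and object ratio to cell channel. Percent activity normalized to 20 uM Triacsin C.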

[1] = measured here: lipid fluorescence (Fed channel) AC50, cells fed with added oleic acid
[2] = measured here: cell number channel AC50, cells fed with added oleic acid

O=C(N/N=C/c1ccco1)c1ccn[nH]1
cell number change: 5.53%

CC(=O)Oc1ccc2oc3c(c2c1)C(=O)CCC3
cell number change: -3.68%
AC50 [1]: 13 µM [falling, partial curve]

CC(=O)N1CCN(C(=O)CCNS(=O)(=O)c2ccccc2)CC1
cell number change: -31.4%
AC50 [2]: 29.1 µM [falling, single point]
AC50 [1]: 29.1 µM [falling, single point]

O=C(Nc1ccc(N2CCOCC2)c(Cl)c1)c1cccc(F)c1
cell number change: -15.6%
AC50 [1]: 0.00411 µM [rising, full curve, poor fit]

Fc1ccc(NCc2nnc3n2CCCCC3)cc1
cell number change: -5.7%
AC50 [2]: 0.00517 µM [rising, full curve, poor fit]

CC(=O)Nc1ccc(S(=O)(=O)Nc2nc3ccccc3nc2N2CCCC2)cc1
AC50 [2]: 1.46 µM [rising, partial curve]
AC50 [1]: 2.06 µM [rising, partial curve]

Clc1ccc2oc(-c3ccccc3)nc2c1
cell number change: 25%

N#CC1=C(N)NC(=S)C(C(N)=O)C1c1ccccc1F (stereo unspecified)
cell number change: -8.02%
AC50 [1]: 0.58 µM [falling, single point]

COc1cccc(-c2nnn(CC(=O)Nc3ccc(C)cc3C)n2)c1OC
cell number change: 33.2%
AC50 [2]: 0.00461 µM [rising, full curve, poor fit]
AC50 [1]: 0.517 µM [rising, partial curve]

CC1=C/C(=C\C=C(C#N)C#N)N(C)c2ccccc21
cell number change: -94.9%
AC50 [2]: 29.1 µM [falling, single point]
AC50 [1]: 1.84 µM [falling, partial curve, poor fit]

COc1ccc(NC(=O)c2cc(S(=O)(=O)N3CCCCC3)ccc2N2CCCCC2)cn1
cell number change: -26%
AC50 [1]: 29.1 µM [falling, single point]

O=C(NCCC1=CCCCC1)C(=O)c1c[nH]c2ccccc12
cell number change: -53.2%
AC50 [2]: 9.2 µM [falling, partial curve]
AC50 [1]: 9.2 µM [falling, partial curve]

Cn1cc(CN2CCC(C(=O)Nc3cccc(-c4cccc(F)c4)c3)CC2)cn1
cell number change: 19.4%
AC50 [1]: 29.1 µM [rising, single point]

COc1ccccc1N(CCC#N)C(=O)COC(=O)CCC(=O)c1ccc(F)cc1
cell number change: 2.01%
AC50 [1]: 32.6 µM [falling, single point]

COc1cc(S(=O)(=O)NCc2ccc3c(c2)OCO3)c(OC)cc1C
cell number change: -10.2%

Cc1ccccc1-c1noc(C2CCCCC2)n1
cell number change: 11.8%
AC50 [1]: 6.51 µM [rising, single point]

COc1cc2c(cc1OC)C1(Nc3c-2c(-c2ccccc2)nn3-c2ccccc2)C(=O)Nc2ccccc21 (stereo unspecified)
cell number change: -15.4%
AC50 [1]: 0.651 µM [rising, single point]

Cc1ccccc1CN1CCC(n2nccc2NC(=O)c2ccc3c(c2)OCO3)CC1
cell number change: -5.41%
AC50 [1]: 29.1 µM [falling, single point]

Cc1ccc(NC(=S)NNC(=O)Cn2nc(C(F)F)cc2C(F)F)cc1
cell number change: -0.334%
AC50 [1]: 0.366 µM [falling, partial curve, poor fit]

OC1(CNCc2cn[nH]c2-c2cc3ccccc3o2)CCCCC1
AC50 [1]: 3.66 µM [rising, full curve]

CCc1ccc(OCC2c3cc(OC)c(OC)cc3CCN2C(=S)NCCOC)cc1 (stereo unspecified)
cell number change: 21.8%

CC1(C)CC(NC(=O)C(F)(F)F)CC(C)(C)N1OC(=O)c1ccco1
cell number change: -9.26%

COc1ccc(NC(=O)CNS(=O)(=O)c2cccc3nonc23)c(OC)c1
cell number change: 49.3%
AC50 [2]: 4.11 µM [rising, full curve, poor fit]
AC50 [1]: 6.51 µM [rising, single point]

N#Cc1ccc(Oc2ccc(S(=O)(=O)N3CCOCC3)cn2)cc1
cell number change: 100%
AC50 [2]: 11.6 µM [rising, partial curve]

Cc1ccc(-c2nc(C=Nc3ccccc3)c(O)o2)cc1
cell number change: 13.1%
AC50 [1]: 3.66 µM [rising, full curve, poor fit]

C=CCn1c(C)cc(C2=NNC(=NC(C)(C)C)SC2)c1C
cell number change: 10.9%
AC50 [1]: 6.51 µM [rising, single point]

CS(=O)(=O)c1ccc(-c2nn[nH]n2)cc1
cell number change: -14.2%
AC50 [1]: 0.146 µM [falling, full curve]

COc1cc(OC)c(C2C(C#N)=C(N)OC3=C2C(=O)CC(C)(C)C3)cc1OC (stereo unspecified)
cell number change: 0.832%

COC(=O)c1nc2ccc(C)cn2c1F
cell number change: -0.408%
AC50 [2]: 2.06 µM [falling, partial curve]
AC50 [1]: 1.46 µM [falling, partial curve]

Cc1nn(Cc2noc(C(=O)NCC3CCCO3)n2)c(C)c1Br (stereo unspecified)
cell number change: 3.24%
AC50 [1]: 29.1 µM [rising, single point]

Cc1ccc(NC(=O)CN2C(=O)NC(C)(c3ccccc3)C2=O)c(C)c1 (stereo unspecified)
cell number change: 37.2%
AC50 [2]: 0.00517 µM [rising, full curve, poor fit]
AC50 [1]: 29.1 µM [falling, single point]

COc1ccccc1C(=O)NCC(C)(C)CN=C1NS(=O)(=O)c2ccccc21
cell number change: 7.92%
AC50 [1]: 8.2 µM [falling, single point]

COc1ccc(NC(=O)CCCN2C(=O)C(c3ccccc3)Oc3cccnc32)cc1 (stereo unspecified)
cell number change: -14.3%
AC50 [1]: 6.51 µM [rising, single point]

Cc1ccc(NC(=O)CSc2n[nH]c(-c3ccncc3)n2)cc1C
cell number change: 161%
AC50 [2]: 13 µM [rising, partial curve]
AC50 [1]: 2.91 µM [rising, partial curve]

Cc1cc(=O)[nH]c(SCC(=O)N2CCCC(C)C2)n1 (stereo unspecified)
AC50 [1]: 1.16 µM [falling, partial curve, poor fit]

COCC(=O)Nc1ccccc1-c1ccccc1
AC50 [2]: 1.64 µM [rising, partial curve]
AC50 [1]: 1.84 µM [rising, partial curve]

COCCCNC(=S)N1CCN(C)CC1
cell number change: -10.1%
AC50 [1]: 23.1 µM [falling, partial curve, poor fit]

CC(=O)Nc1ccc(N(C(=O)Cc2c[nH]c3ccccc23)C(C(=O)NC2CCCCC2)c2ccco2)cc1 (stereo unspecified)
cell number change: -37.4%
AC50 [2]: 0.92 µM [falling, full curve, poor fit]
